Results are given in words; binding and its absence hold for the method and conditions named. In cells and extracts the contact can be indirect. Some binding calls cover weakened binding; strength is not graded here.

The target in experiment [1] is HLA B*0702 class I MHC molecule (human). Briefly: LC-MS/MS of peptides eluted from immunoaffinity-purified class I MHC; Table 5: associated with HLA B*0702.
Experiment [2] has the same target. As to the kind of experiment: LC-MS/MS of peptides eluted from immunoaffinity-purified class I MHC; Table 4: associated with HLA B*0702.
The target is the same in experiment [3]. Briefly: LC-MS/MS of eluted class I MHC peptides; Table 7: presented by HLA B*0702 on ALL.

In the case of APPSTSAAAL (hexose-GlcNAc on T5) [APPStSAAAL (hexose-GlcNAc) (SEQ ID NO: 2)], in experiment [1], the binding entry was “binds”. Consider APPSTSAAAL (O-GlcNAc on S6) [APPSTsAAAL (SEQ ID NO: 2)], for which the binding entry in experiment [2] is given as “binds”. Turning to TPISQAQKL (O-GlcNAc on S4) [TPIsQAQKL (SEQ ID NO: 36)], the binding result in experiment [3] and in experiment [2] was “binds” throughout. Take RPPSSSQQL (O-GlcNAc on S5) [RPPSsSQQL (SEQ ID NO: 31)]: the binding entry in experiment [2] is on record as “binds”. For VPVSVGPSL (O-GlcNAc on S4) [VPVsVGPSL (SEQ ID NO: 45)], the binding result in experiment [3] and in experiment [2] was “binds” each time. Take APPSTSAAAL (hexose-GlcNAc on S6) [APPSTsAAAL (hexose-GlcNAc) (SEQ ID NO: 2)]: the binding result in experiment [1] is given as “binds”. Regarding APPSTSAAAL (O-GlcNAc on T5) [APPStSAAAL (SEQ ID NO: 2)], the binding result in experiment [2] is on record as “binds”. Turning to APPSTSAAAL (hexose-GlcNAc on T5 and on S6) [APPStsAAAL (2 hexose-GlcNAc) (SEQ ID NO: 2)], the binding entry in experiment [1] was “binds”. In the case of HPSSTASTAL (O-GlcNAc on T5) [HPSStASTAL (SEQ ID NO: 14)], the binding result in experiment [2] was “binds”. For APPSTSAAAL (O-GlcNAc on S4) [APPsTSAAAL (SEQ ID NO: 2)], in experiment [2], the binding entry is “binds”.

As for VPTTSSSL (O-GlcNAc on S5) [VPTTsSSL (SEQ ID NO: 41)], the binding entry in experiment [2] is “binds”.

With IPVSSHNSL (O-GlcNAc on S4 and on S5) [IPVssHNSL (SEQ ID NO: 19)], the binding result in experiment [2] is listed as “binds”. Regarding HPSSTASTAL (O-GlcNAc on S4) [HPSsTASTAL (SEQ ID NO: 14)], the binding result in experiment [2] was “binds”.

In the case of LPRNSTMM (O-GlcNAc, site not assigned: S5 or T6 could be the site) [LPRN(st)MM (SEQ ID NO: 23)], the binding entry in experiment [3] is “binds”. With LPTSLPSSL (O-GlcNAc on S4) [LPTsLPSSL (SEQ ID NO: 24)], the binding result in experiment [3] and in experiment [2] was “binds” each time. With VPTTSSSL (O-GlcNAc on T4) [VPTtSSSL (SEQ ID NO: 41)], the binding result in experiment [3] and in experiment [2] was “binds” in each case.

As for LPRNSTMM (O-GlcNAc on S5 and on T6 as printed) [LPRNstMM (SEQ ID NO: 23)], the binding entry in experiment [2] is “binds”.

Consider VPVSGTQGL (O-GlcNAc on S4) [VPVsGTQGL (SEQ ID NO: 42)], for which the binding result in experiment [3] and in experiment [2] was “binds” in each case. Take APPSTSAAAL (O-GlcNAc on T5 and on S6) [APPStsAAAL (SEQ ID NO: 2)]: in experiment [2], the binding result is “binds”. On to KPPTSQSSVL (O-GlcNAc on S5) [KPPTsQSSVL (SEQ ID NO: 20)], for which the binding entry in experiment [2] is “binds”. Same read-out and setting: as for APPSTSAAAL (O-GlcNAc on S4 and on T5) [APPstSAAAL (SEQ ID NO: 2)], the entry is “binds”. For the molecule VPVSSASEL (O-GlcNAc on S4) [VPVsSASEL (SEQ ID NO: 44)], the binding entry in experiment [3] and in experiment [2] was “binds” each time. With APTSAAAL (O-GlcNAc on S4) [APTsAAAL (SEQ ID NO: 5)], the binding entry in experiment [3] and in experiment [2] was “binds” each time. With IPTSSVLSL (O-GlcNAc on S4) [IPTsSVLSL (SEQ ID NO: 17)], the binding result in experiment [3] and in experiment [2] was “binds” in each case. In the case of EPSSTVVSL (O-GlcNAc on S4) [EPSsTVVSL (SEQ ID NO: 9)], the binding entry in experiment [2] is given as “binds”. As for APPSTSAAAL (hexose-GlcNAc on S4 and on S6) [APPsTsAAAL (2 hexose-GlcNAc) (SEQ ID NO: 2)], the binding entry in experiment [1] is listed as “binds”. In the case of NPVSLPSL (O-GlcNAc on S4) [NPVsLPSL (SEQ ID NO: 27)], the binding result in experiment [3] and in experiment [2] was “binds” in each case. Regarding IPISLHTSL (O-GlcNAc on S4) [IPIsLHTSL (SEQ ID NO: 16)], the binding entry in experiment [3] and in experiment [2] was “binds” in each case. As to HPSSTASTAL (O-GlcNAc, site not assigned: S3, S4 or T5 could be the site) [HP(sst)ASTAL (SEQ ID NO: 14)], in experiment [3], the binding entry is “binds”.

On to HPSSTASTAL (O-GlcNAc on S3) [HPsSTASTAL (SEQ ID NO: 14)], for which the binding entry in experiment [2] is “binds”. As to HPMSTASQV (O-GlcNAc on S4) [HPMsTASQV (SEQ ID NO: 11)], the binding result in experiment [3] and in experiment [2] was “binds” each time. Consider APPSTSAAAL (hexose-GlcNAc on S4) [APPsTSAAAL (hexose-GlcNAc) (SEQ ID NO: 2)], for which, in experiment [1], the binding result is “binds”. RPPSSSQQL (O-GlcNAc on S6) [RPPSSsQQL (SEQ ID NO: 31)]: the binding entry in experiment [2] is recorded as “binds”. For RPPSSSQQL (O-GlcNAc on S4) [RPPsSSQQL (SEQ ID NO: 31)], the binding result in experiment [2] is given as “binds”. On to EPSSTVVSL (O-GlcNAc, site not assigned: S3, S4 or T5 could be the site) [EP(sst)VVSL (SEQ ID NO: 9)], for which the binding result in experiment [3] is on record as “binds”. As to KPPTSQSSVL (O-GlcNAc on T4) [KPPtSQSSVL (SEQ ID NO: 20)], the binding entry in experiment [2] is recorded as “binds”. With VPTTSSSL (O-GlcNAc on T3) [VPtTSSSL (SEQ ID NO: 41)], the binding entry in experiment [2] was “binds”.

In the case of APTSASNVM (O-GlcNAc on S6) [APTSAsNVM (SEQ ID NO: 6)], the binding result in experiment [2] is “binds”.

Turning to EPSSTVVSL (O-GlcNAc on T5) [EPSStVVSL (SEQ ID NO: 9)], in experiment [2], the binding entry is “binds”. On to PPSTSAAAL (note x: T4 or S5 is modified by O-linked hexose-GlcNAc) [PPS(ts)AAAL (SEQ ID NO: 28)], for which the binding result in experiment [3] was “binds”. For EPSSTVVSL (O-GlcNAc on S3) [EPsSTVVSL (SEQ ID NO: 9)], the binding result in experiment [2] was “binds”. Take APPSTSAAAL (hexose-GlcNAc on T5; GlcNAc on S6) [APPStsAAAL (hexose-GlcNAc, GlcNAc) (SEQ ID NO: 2)]: the binding result in experiment [1] is “binds”. With APVSASASV (O-GlcNAc on S4) [APVsASASV (SEQ ID NO: 7)], the binding entry in experiment [3] and in experiment [2] was “binds” throughout.

On to VPVSNQSSL (O-GlcNAc on S4) [VPVsNQSSL (SEQ ID NO: 43)], for which the binding entry in experiment [3] and in experiment [2] was “binds” throughout. As to RPPSSSQQL (O-GlcNAc, site not assigned: S4, S5 or S6 could be the site) [RPP(sss)QQL (SEQ ID NO: 31)], the binding entry in experiment [3] is reported as “binds”. For APTSASNVM (O-GlcNAc on S4) [APTsASNVM (SEQ ID NO: 6)], in experiment [2], the binding result is “binds”.

The values above are taken from patent US20190015494A1.
